{"source": "patent US11209440B2", "about": "“T cell balance gene expression, compositions of matters and methods of use thereof” (THE BROAD INSTITUTE, INC., priority 2014, dated 2021)", "origin": "cited, not measured here", "key": {"Tsc22d3": {"tested_on": "Tsc22d3", "conditions": "other cells; cited from earlier work"}, "Th17 differentiation": {"tested_on": "Th17 differentiation", "conditions": "cited from earlier work"}}, "note": "At least one structure is not confirmed: it was looked up by name or label, or the drawing left a doubt."}
{"smiles": "C[C@@H]1C[C@H]2[C@@H]3CCC4=CC(=O)C=C[C@]4(C)[C@@]3(F)[C@@H](O)C[C@]2(C)[C@@]1(O)C(=O)CO", "note": "[Dexamethasone]", "values": [{"measurement": "Tsc22d3 expression", "setting": "Tsc22d3", "value": "induced"}, {"measurement": "ROR-γt expression", "setting": "Th17 differentiation", "value": "represses"}, {"measurement": "Th17 differentiation", "setting": "Th17 differentiation", "value": "represses"}]}
